The record followed here is article PMC7819943, “Rice protein-binding microarrays: a tool to detect cis-acting elements near promoter regions in rice”.

The other results are listed elsewhere or left out.

This assay concerns the target T1, OsSMF1 (Oryza sativa, UniProt Q6ZLB0 1-436).
T1 sequence: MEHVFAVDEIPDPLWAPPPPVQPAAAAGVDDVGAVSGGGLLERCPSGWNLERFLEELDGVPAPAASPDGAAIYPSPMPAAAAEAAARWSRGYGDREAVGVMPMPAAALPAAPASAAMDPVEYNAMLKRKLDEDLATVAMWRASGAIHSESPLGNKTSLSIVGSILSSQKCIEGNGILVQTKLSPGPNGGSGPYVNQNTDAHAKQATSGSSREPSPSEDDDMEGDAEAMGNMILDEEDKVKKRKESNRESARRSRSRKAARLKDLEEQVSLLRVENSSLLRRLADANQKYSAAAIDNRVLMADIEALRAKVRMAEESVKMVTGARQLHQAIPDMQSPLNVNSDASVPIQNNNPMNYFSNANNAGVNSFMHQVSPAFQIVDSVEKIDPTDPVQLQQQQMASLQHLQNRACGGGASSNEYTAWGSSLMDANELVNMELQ
Briefly: protein-binding microarray (RPBM); PBS, 2% BSA, 51.3 ng/ul salmon testes DNA, 50 uM zinc acetate, 200 nM TF, 25 C, 1 h; high values mean tight binding. To be noted: protein: recombinant; tags: N-terminal polyhistidine and DsRed monomer fusion (pET32a); chain copies: 2; label: CyDye5-dUTP incorporated in the synthesized complementary strand; 3' TTTTT single-stranded linker to array surface; dsDNA, one strand shown. An outline of the steps:
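The binding signal is fluorescence intensity per array feature (arbitrary units). Readings came from an Axon 4000B scanner after a washed, 2% BSA-blocked, double-stranded custom Agilent array had been incubated for 1 h at 25 °C with 200 nM protein and 50 µM zinc acetate. The protein was a Ni–NTA-purified transcription factor fused N-terminally to polyhistidine and DsRed, expressed in E. coli BL21-CodonPlus.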
As for “AGCAGGTGACACGGCGGCGGCGTCTCGCCGGCGTGGAGTGCGGAGTCACCTAGTGCAG”, the binding signal was 3810 fluorescence intensity (a.u.).

Turning to “GTCACGTACGTGCAGACCATGACCTGCTCTCCCAACATTTCGGAGTCACCTAGTGCAG”, the binding signal is 28900 fluorescence intensity (a.u.).

On to “TGCTGATTGGCGCTCCCCACGTTGGCAAGATTAGGTGATCCGGAGTCACCTAGTGCAG”, for which the binding signal is 4620 fluorescence intensity (a.u.).

In the case of “CTAGCGAAAATCTAAAATGGCCGCCACGAAAGATGGTTTTCGGAGTCACCTAGTGCAG”, the binding signal is 3410 fluorescence intensity (a.u.).

Turning to “TTTGGGACCTTTAGCTATCGCAGGAAAGAACCGTCGACACCGGAGTCACCTAGTGCAG”, the binding signal was 27100 fluorescence intensity (a.u.).

As to “GAGCGTGGACACGACTACGCCACGTCGGATAGCACATCATCGGAGTCACCTAGTGCAG”, the binding signal is 14600 fluorescence intensity (a.u.).

Regarding “GGTTTTAACTTAGGTGGCGGCTGAGTCAGCGTGGGACCCACGGAGTCACCTAGTGCAG”, the binding signal was 11600 fluorescence intensity (a.u.).

Regarding “ACTGCTTACTCTTAATCTTTATACACGCCATTTAGAGGCACGGAGTCACCTAGTGCAG”, the binding signal was 3640 fluorescence intensity (a.u.).

Take “GGGCGTTGCGGCCGTCACACGTGGTATGGGAGGGCGCCGCCGGAGTCACCTAGTGCAG”: the binding signal was 5820 fluorescence intensity (a.u.).

For the sequence “ACGCGCCGATTCCGAAGAAATCAATCAACCAACTACTAGGCGGAGTCACCTAGTGCAG”, the binding signal was 19200 fluorescence intensity (a.u.).

Take “AGCTTACGTTATTCTTGATCCCTTCCTAAATTATCTGGCGCGGAGTCACCTAGTGCAG”: the binding signal is 19100 fluorescence intensity (a.u.).

Turning to “GCGCGGCGCGTGACGGCGGTCATCGGTCAAAGACACGAACCGGAGTCACCTAGTGCAG”, the binding signal is 3140 fluorescence intensity (a.u.).

With “GTGAGACACCCAAAGATCGTGTATTTGTTTGTAGACACGGCGGAGTCACCTAGTGCAG”, the binding signal was 3150 fluorescence intensity (a.u.).

Consider “AAGCACGTATCCCCACTTCACGATGATTGGGCAAAGTCTTCGGAGTCACCTAGTGCAG”, for which the binding signal was 3930 fluorescence intensity (a.u.).

Regarding “TCGATCTGTTTCGCTTTGCTTCCGTCAGCCACCGAATTTGCGGAGTCACCTAGTGCAG”, the binding signal is 4570 fluorescence intensity (a.u.).

Consider “AGTACTCTTCACTGTCTCCATGGAAGTTGTAGGCCTGTTGCGGAGTCACCTAGTGCAG”, for which the binding signal is 3320 fluorescence intensity (a.u.).

Turning to “CATAGATAAAAGAGTAAAACATCTTACTGCCAGCTTCACCCGGAGTCACCTAGTGCAG”, the binding signal was 21200 fluorescence intensity (a.u.).

As to “ATAATCCCCGACACATAAGCACTCATAGAGTACTACAAACCGGAGTCACCTAGTGCAG”, the binding signal was 3920 fluorescence intensity (a.u.).

In the case of “TCGGTGTTTCCAGTTTCCATCAACCGTAAGCGTGTCATTCCGGAGTCACCTAGTGCAG”, the binding signal was 4000 fluorescence intensity (a.u.).

For “GTTCTTTCTCCTGCCTAGCTAGCTACTCCCAGTTGTTTGCCGGAGTCACCTAGTGCAG”, the binding signal was 26600 fluorescence intensity (a.u.).

On to “CGGATCCCCGATCGGACGGTCCACGTTGCCCCGTCGCCCTCGGAGTCACCTAGTGCAG”, for which the binding signal is 7610 fluorescence intensity (a.u.).

As to “TTTGTGACTCCACATCACAGCATGCCTCAGCAGCTACCTCCGGAGTCACCTAGTGCAG”, the binding signal was 4000 fluorescence intensity (a.u.).

Turning to “AATTTCAGTACTCAGTTCATTAAATTAATTAAAGAAAGGCCGGAGTCACCTAGTGCAG”, the binding signal is 51100 fluorescence intensity (a.u.).

Turning to “TTTCTTCTTGTTTCTTAGTCAGCGTCAGTTATCAAGCTATCGGAGTCACCTAGTGCAG”, the binding signal was 6580 fluorescence intensity (a.u.).

On to “CGCCTTGCCGTTCCTTCCCCTCCTCGTCATCACTAGGGTTCGGAGTCACCTAGTGCAG”, for which the binding signal is 8160 fluorescence intensity (a.u.).

“GAGATTTTGGTTAAATGTGACACATCTAGTATAATGAATCCGGAGTCACCTAGTGCAG”: the binding signal was 3730 fluorescence intensity (a.u.).

Regarding “TGAAAATTTTGGTAGGATAAATAGAAGACCAGCTCCCTCTCGGAGTCACCTAGTGCAG”, the binding signal was 4220 fluorescence intensity (a.u.).

Turning to “GGAGCATATTACTCGGTACTATGAATTATGATGACACTTGCGGAGTCACCTAGTGCAG”, the binding signal is 4220 fluorescence intensity (a.u.).

On to “ATGTGGCACACACGTGGCGTCGCAACCCGGTCGCGTCCAACGGAGTCACCTAGTGCAG”, for which the binding signal was 12200 fluorescence intensity (a.u.).

With “CGCCCCTCCCATCCTCTACACGTACGGTTACACAAATCCACGGAGTCACCTAGTGCAG”, the binding signal is 3960 fluorescence intensity (a.u.).

On to “GCCGATGCCGGCCTAGCCCTCCGCGTGGCATTCCGTCCCCCGGAGTCACCTAGTGCAG”, for which the binding signal is 6450 fluorescence intensity (a.u.).

With “CGCGCCATCTCCATGTCATCGTCGTCGTCTGTGTCCCCTTCGGAGTCACCTAGTGCAG”, the binding signal was 7760 fluorescence intensity (a.u.).

Take “ACTGATCAGCTCCTATATTGTACCGTAACAATCCATGTCACGGAGTCACCTAGTGCAG”: the binding signal is 3570 fluorescence intensity (a.u.).

For the sequence “TTTCTGCGGATTTGCAAACCTTAAACTGCTTGCTCTTGACCGGAGTCACCTAGTGCAG”, the binding signal is 3400 fluorescence intensity (a.u.).

For the sequence “ATGTCTTTTATCTGTACAATAAGTGTGCCTTATTTTACCACGGAGTCACCTAGTGCAG”, the binding signal is 3330 fluorescence intensity (a.u.).

Take “ACGTCTGTTTAGATTTGTTATACTGGAATATGTCACATCTCGGAGTCACCTAGTGCAG”: the binding signal is 32200 fluorescence intensity (a.u.).

Consider “TATATATATATATACCCCTGAGACTCAATACAACGTGTCCCGGAGTCACCTAGTGCAG”, for which the binding signal was 4300 fluorescence intensity (a.u.).

Take “CCGAGCTCGCCGTCGCCCCGTCACGCCAGCCGCCTCTTCCCGGAGTCACCTAGTGCAG”: the binding signal was 4260 fluorescence intensity (a.u.).

Regarding “TTCTCTCGTGTCTCCGCCACCGCATCGTCGGCCGCCTGTCCGGAGTCACCTAGTGCAG”, the binding signal was 5720 fluorescence intensity (a.u.).

“CCCTGTAGAAAGTAAAATGACATGCGGGGTCAGAAGTTTCCGGAGTCACCTAGTGCAG”: the binding signal is 3910 fluorescence intensity (a.u.).

For the sequence “ACCTGCCCAACCCCAACCCCAACCCTCTCCTCTCCGCCCACGGAGTCACCTAGTGCAG”, the binding signal is 3710 fluorescence intensity (a.u.).

As to “AAACAGTGCACAAATGCCCATGTAGATGATGATTTATTAACGGAGTCACCTAGTGCAG”, the binding signal was 35100 fluorescence intensity (a.u.).
